The results in this text go back to article doi:10.1101/2020.01.13.904870 (bioRxiv, 2020).

Assay [1] deals with Flag-tagged HsFN3K, wild type, in HEK293T cells (human) (UniProt Q9H479). As to the kind of experiment: SDS-PAGE and anti-Flag immunoblot of total cell lysate. In general terms: Immunoblotting shows a protein as a band on a membrane.
Assay [2] deals with Flag-tagged HsFN3K C24A mutant, in HEK293T cells (human) (UniProt Q9H479). The description is as above.

Changes are numbered by the printed parent chain. Names may count otherwise. Results are given in words; binding and its absence hold for the method and conditions named. Some results given as binding are weak or reduced against the parent protein; the word gives no strength. Sequences can lack the tags named with a protein.

B1: Recombinant His-HsFN3K (human Fructosamine-3-kinase), wild type (enzyme, UniProt Q9H479 1-309, looked up)
chain: MEQLLRAELRTATLRAFGGPGAGCISEGRAYDTDAGPVFVKVNRRTQARQMFEGEVASLEALRSTGLVRVPRPMKVIDLPGGGAAFVMEHLKMKSLSSQASKLGEQMADLHLYNQKLREKLKEEENTVGRRGEGAEPQYVDKFGFHTVTCCGFIPQVNEWQDDWPTFFARHRLQAQLDLIEKDYADREARELWSRLQVKIPDLFCGLEIVPALLHGDLWSGNVAEDDVGPIIYDPASFYGHSEFELAIALMFGGFPRSFFTAYHRKIPKAPGFDQRLLLYQLFNYLNHWNHFGREYRSPSLGTMRRLLK
B1: the binding result in assay [1] is given as “binds”.

B2: Flag-tagged HsFN3K C24A mutant, in HEK293T cells (enzyme, UniProt Q9H479 1-309)
chain: B1 chain with C24A
Consider B2, for which the binding entry in assay [2] was “no binding”.
